No constants are given. Whether binding was seen depends on the method and setting. For some of these results: In cells and extracts the contact can be indirect. Some entries that bind do so weakly or less than the wild type. Blank lines part the entries; values can stand above or below the substance they belong to.
Columns and labels:
Flag-importin α5 = Flag-importin α5 (UniProt P52294); experiment: co-IP; two-step (sequential) immunoprecipitation from HepG2 cells co-transfected with Flag-importin α5 and HA-PKM2: first anti-Flag, elution, then anti-HA; Western blotting; MNX1-AS1 RNA also captured
[1] = target: importin α5 (KPNA1), endogenous (human (endogenous in HepG2)) (UniProt P52294); experiment: co-IP; endogenous proteins, lysates of HepG2 cells bearing sh-ctrl or sh-MNX1-AS1 lentiviruses; immunoprecipitated with antibodies against PKM2 or importin α5; Western blotting
[2] = target: importin α5 mammalian two-hybrid fusion (pBIND/pACT) (UniProt P52294); experiment: two-hybrid; mammalian two-hybrid: pBIND (GAL4 DNA-binding domain) and pACT (VP16 activation domain) fusions with pG5luc in HepG2 cells stably expressing sh-ctrl or sh-MNX1-AS1; luciferase after 48 h
[3] = target: pyruvate kinase isoform M2 (PKM2), endogenous (human (endogenous in HepG2)) (UniProt P14618); experiment: co-IP; endogenous proteins, lysates of HepG2 cells bearing sh-ctrl or sh-MNX1-AS1 lentiviruses; immunoprecipitated with antibodies against PKM2 or importin α5; Western blotting

By UniProt entry, the sequences of proteins in these tests, tags left out.
UniProt P52294: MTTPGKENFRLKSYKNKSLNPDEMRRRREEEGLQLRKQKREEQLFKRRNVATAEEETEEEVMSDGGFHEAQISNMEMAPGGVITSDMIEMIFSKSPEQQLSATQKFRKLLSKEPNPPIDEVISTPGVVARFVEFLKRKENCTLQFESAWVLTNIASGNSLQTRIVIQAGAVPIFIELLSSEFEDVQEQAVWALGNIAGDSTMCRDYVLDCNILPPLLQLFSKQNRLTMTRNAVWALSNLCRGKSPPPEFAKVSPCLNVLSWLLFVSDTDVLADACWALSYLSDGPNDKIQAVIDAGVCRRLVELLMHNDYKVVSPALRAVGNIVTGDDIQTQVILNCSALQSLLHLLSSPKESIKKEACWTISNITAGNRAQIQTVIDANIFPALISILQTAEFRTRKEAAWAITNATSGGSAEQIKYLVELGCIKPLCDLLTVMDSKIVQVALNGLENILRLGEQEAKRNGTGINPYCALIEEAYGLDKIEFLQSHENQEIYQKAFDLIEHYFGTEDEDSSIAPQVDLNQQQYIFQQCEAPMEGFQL
UniProt P14618: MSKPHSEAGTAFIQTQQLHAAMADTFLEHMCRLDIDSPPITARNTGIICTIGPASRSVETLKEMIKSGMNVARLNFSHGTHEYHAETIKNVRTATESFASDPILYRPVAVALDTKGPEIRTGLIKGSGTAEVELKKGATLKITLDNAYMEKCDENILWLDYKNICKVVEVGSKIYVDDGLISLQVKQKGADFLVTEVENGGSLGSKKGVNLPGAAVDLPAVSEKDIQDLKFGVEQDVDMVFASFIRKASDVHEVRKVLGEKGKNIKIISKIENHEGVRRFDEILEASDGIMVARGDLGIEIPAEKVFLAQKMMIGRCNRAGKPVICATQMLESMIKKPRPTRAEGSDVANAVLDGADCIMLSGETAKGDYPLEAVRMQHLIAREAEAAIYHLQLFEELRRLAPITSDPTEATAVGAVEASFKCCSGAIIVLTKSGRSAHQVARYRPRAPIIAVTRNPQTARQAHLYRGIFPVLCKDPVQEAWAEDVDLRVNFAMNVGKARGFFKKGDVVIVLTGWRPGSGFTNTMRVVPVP

binding (Flag-importin α5): binds
Substance: HA-PKM2 (from UniProt P14618 1-531) (enzyme)

binding [1]: binds
Substance: pyruvate kinase isoform M2 (PKM2), endogenous (from UniProt P14618 1-531) (enzyme)

binding [2]: binds
Substance: PKM2 mammalian two-hybrid fusion (pBIND/pACT) (from UniProt P14618 1-531) (enzyme)

binding [3]: binds
Substance: importin α5 (KPNA1), endogenous (from UniProt P52294 1-538)
